Reference: US11274126B2, “pH-sensitive cyclic peptides” (University of Rhode Island Board of Trustees, priority 2016, dated 2022)
Part of at least one peptide drawing is inferred or uncertain, most often the ends. Residues, ends and D or L forms follow the SMILES beside them.

Experiments:
[1] = Steady-state tryptophan fluorescence of peptides in buffer and with POPC liposomes; format: physicochemical; conditions: for S, normalized area under the spectra, Pep-PC, pH3: POPC liposomes pH 3; for S, normalized area under the spectra, Pep-PC, pH3 / S, normalized area under the spectra, Pep-PC, pH8: normalized to peptide at pH 8 without POPC; for S, normalized area under the spectra, Pep-PC, pH8: POPC liposomes pH 8; for λmax, Pep-PC, pH3: in the presence of POPC liposomes at pH 3; for λmax, Pep-PC, pH3 / λmax, Pep-PC, pH8 / λmax, maximum position of the fluorescence spectrum, Pep, pH8: excitation 280 nm; for λmax, Pep-PC, pH8: in the presence of POPC liposomes at pH 8; for λmax, maximum position of the fluorescence spectrum, Pep, pH8: peptide in phosphate buffer pH 8, no liposomes
Description: Liposomes such as Large Unilamellar Vesicles (LUVs) were prepared by extrusion. POPC, 1-palmitoyl-2-oleoyl-sn-glycero-3-phosphocholine (Avanti Polar Lipids), or a mixture of POPC with 0.5% of 18:1 NBD-PE, 1,2-dioleoyl-sn-glycero-3-phosphoethanolamine-N-7-nitro-2-1,3-benzoxadiazol-4-yl ammonium salt (Avanti Polar Lipids) were dissolved in chloroform, desolvated on a rotary evaporator, and dried under high vacuum for several hours. The phospholipid film was then rehydrated in 10 mM phosphate buffer pH 8.0, vortexed until the lipid bilayer was completely dissolved, and repeatedly (15-21 times) extruded through the membranes with 50 nm pore sizes to obtain LUVs.
Freshly prepared peptides and POPC vesicles were mixed to have 5 μM of a peptide and 1.25 mM of lipids in the final solution. Steady-state fluorescence measurements were carried out on a PC1 spectrofluorometer (ISS, Inc.) under temperature control at 25° C. Tryptophan fluorescence was excited at 280 nm (there is no Phe or Tyr in the peptides) and recorded with the excitation and emission slits set at 1 nm. The polarizers in the excitation and emission paths were set at the “magic” angle (54.7o from the vertical orientation) and vertically (0°), respectively. Steady state CD measurements were carried out in MOS 450 spectropolarimeter (Bio-Logic, Inc.) with the same concentrations of peptide and lipids as it were used in fluorescence measurements.

[2] = Dual quenching (acrylamide / 10-DN); format: physicochemical; conditions: POPC liposomes; for percentage of fluorescence quenching, Pep-PC + 10-DN pH3 / percentage of fluorescence quenching, Pep-PC + AC pH3: pH 3; for percentage of fluorescence quenching, Pep-PC + 10-DN pH8 / percentage of fluorescence quenching, Pep-PC + AC pH8: pH 8; for percentage of fluorescence quenching, Pep-PC + AC pH3 / percentage of fluorescence quenching, Pep-PC + AC pH8: acrylamide
Description: POPC liposomes without and with 10% of the lipids replaced by 10-doxylnonadecane (10-DN) (Avanti Polar Lipids) were prepared in 10 mM citrate-phosphate buffer pH 8.0. Peptides and POPC liposomes were mixed to generate final concentrations of 7 μM peptide and 2.1 mM POPC without and with 10-DN. […] To the samples of POPC liposomes containing no 10-DN, acrylamide (Sigma-Aldrich) was added to have a final concentration of 235 mM in solution. Concentration of peptides in all samples was kept constant. To observe quenching of tryptophan fluorescence by 10-DN or acrylamide, the tryptophan fluorescence was recorded as described above. The appropriate POPC blanks were measured and subtracted from the measured spectra before analysis. The percentage of quenching was calculated.
To establish localization of the peptides within a lipid bilayer of the membrane, a dual quenching assay (Caputo G A & London E (2003) Biochemistry 42(11):3265-3274) was used (FIG. 6 and Table 8). Effective quenching of fluorescence by acrylamide would occur only for tryptophan residues exposed to polar parts of outer or inner leaflets of the bilayer. At the same time, tryptophan residues located in the middle of a membrane would be effectively quenched by 10-DN. The result of the dual quenching assay allows the determination of whether tryptophan residues are located in the middle of a membrane or close to the polar headgroups of the bilayer. […] Therefore, FRET assays were also performed (McIntyre J C & Sleight R G (1991) Biochemistry 30(51):11819-11827; Clausell et al. (2006) J Phys Chem B 110(9):4465-4471) (FIG. 7). First, POPC liposomes symmetrically-labeled with NBD dye were prepared. Then, membrane-impermeable dithionite was used to modify chemically and quench the fluorescence of NBD at the outer leaflet of the bilayer followed by removal of dithionite by gel filtration. As a result, asymmetrically-labeled liposomes with NBD only at the inner leaflet were obtained. The c[E4W5C] […] All other peptides are located at the outer leaflet of the bilayer at pH 8. Among c[(WE)4WC] (SEQ ID NO: 2), c[(WE)5WC] (SEQ ID NO: 3), and c[(WE)3WC] (SEQ ID NO: 1) peptides, the peptide with smallest cycle, c[(WE)3WC]

[3] = pH-dependent partitioning into lipid bilayer (shift of fluorescence maximum versus pH); format: physicochemical; conditions: POPC liposomes, pH drop from 8 to 2.5
[4] = Titration with POPC liposomes, peptide-membrane partition model; format: binding

Row | SMILES | S, normalized area under the spectra, Pep-PC, pH3 [1] | S, normalized area under the spectra, Pep-PC, pH8 [1] | λmax, Pep-PC, pH3 [1] [nm] | λmax, Pep-PC, pH8 [1] [nm] | λmax, maximum position of the fluorescence spectrum, Pep, pH8 [1] [nm] | percentage of fluorescence quenching, Pep-PC + 10-DN pH3 [2] [%] | percentage of fluorescence quenching, Pep-PC + 10-DN pH8 [2] [%] | percentage of fluorescence quenching, Pep-PC + AC pH3 [2] [%] | percentage of fluorescence quenching, Pep-PC + AC pH8 [2] [%] | apparent pK of peptide partition into the bilayer [3] | additional free energy released at low pH ([4]; low pH versus pH 8) | free Gibbs energy released on partition to the lipid bilayer ([4]; pH 8)
1 | CC(C)C[C@@H]1NC(=O)[C@H](CS)NC(=O)[C@H](Cc2c[nH]c3ccccc23)NC(=O)[C@H](CCC(=O)O)NC(=O)[C@H](CC(C)C)NC(=O)[C@H](CCC(=O)O)NC(=O)[C@H](CC(C)C)NC(=O)[C@H](CCC(=O)O)NC(=O)[C@H](CC(C)C)NC(=O)[C@H](CCC(=O)O)NC1=O [c[(LE)4WC]] (cyclo(CLELELELEW)) | 1.1 ± 0.1 | 1.1 ± 0.0 | 339.6 ± 1.2 | 348.2 ± 0.6 | 348.7 ± 0.3 | 17 | 0 | 59 | 96 | smallest pK value | – | –
2 | O=C(O)CC[C@@H]1NC(=O)[C@H](Cc2c[nH]c3ccccc23)NC(=O)[C@H](CS)NC(=O)[C@H](Cc2c[nH]c3ccccc23)NC(=O)[C@H](CCC(=O)O)NC(=O)[C@H](Cc2c[nH]c3ccccc23)NC(=O)[C@H](CCC(=O)O)NC(=O)[C@H](Cc2c[nH]c3ccccc23)NC(=O)[C@H](CCC(=O)O)NC(=O)[C@H](Cc2c[nH]c3ccccc23)NC1=O [c[(WE)4WC]] (cyclo(CWEWEWEWEW)) | 1.6 ± 0.2 | 1.1 ± 0.1 | 341.1 ± 0.9 | 347.5 ± 1.2 | 350.5 ± 0.2 | 40 | 11 | 50 | 87 | – | – | –
3 | O=C(O)CC[C@@H]1NC(=O)[C@H](CS)NC(=O)[C@H](Cc2c[nH]c3ccccc23)NC(=O)[C@H](Cc2c[nH]c3ccccc23)NC(=O)[C@H](Cc2c[nH]c3ccccc23)NC(=O)[C@H](Cc2c[nH]c3ccccc23)NC(=O)[C@H](Cc2c[nH]c3ccccc23)NC(=O)[C@H](CCC(=O)O)NC(=O)[C@H](CCC(=O)O)NC(=O)[C@H](CCC(=O)O)NC1=O [c[E4W5C]] | 2.4 ± 0.5 | 2.4 ± 0.3 | 340.2 ± 0.4 | 342.8 ± 0.4 | 350.6 ± 0.2 | 52 | 49 | 54 | 61 | 5.7 | about 0.7 kcal/mol | about 7.3 kcal/mol
